No constants are given. Whether binding was seen depends on the method and setting. In cells and extracts the contact can be indirect. Some results given as binding are weak or reduced against the parent protein; the word gives no strength.
Biological target: T1, BCL2L10 (human (endogenous in Hep3B)) (UniProt Q9HD36)
T1 sequence: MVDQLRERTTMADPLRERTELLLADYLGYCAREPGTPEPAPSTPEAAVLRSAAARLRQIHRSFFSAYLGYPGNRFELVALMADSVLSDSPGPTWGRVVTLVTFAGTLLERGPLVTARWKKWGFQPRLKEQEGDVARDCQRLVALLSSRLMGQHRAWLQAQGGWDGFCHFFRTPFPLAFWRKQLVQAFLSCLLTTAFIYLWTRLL
Assay: co-IP; Hep3B cells (NC, pcDNA3.1-BCL2L10 or si-BCL2L10) in complete medium (CM) or EBSS starvation medium for 6 h; EBC lysis buffer; BCL2L10 precipitated, Beclin 1 detected by Western blot

The chains behind the UniProt entries cited, without tags or fusion partners.
UniProt Q14457: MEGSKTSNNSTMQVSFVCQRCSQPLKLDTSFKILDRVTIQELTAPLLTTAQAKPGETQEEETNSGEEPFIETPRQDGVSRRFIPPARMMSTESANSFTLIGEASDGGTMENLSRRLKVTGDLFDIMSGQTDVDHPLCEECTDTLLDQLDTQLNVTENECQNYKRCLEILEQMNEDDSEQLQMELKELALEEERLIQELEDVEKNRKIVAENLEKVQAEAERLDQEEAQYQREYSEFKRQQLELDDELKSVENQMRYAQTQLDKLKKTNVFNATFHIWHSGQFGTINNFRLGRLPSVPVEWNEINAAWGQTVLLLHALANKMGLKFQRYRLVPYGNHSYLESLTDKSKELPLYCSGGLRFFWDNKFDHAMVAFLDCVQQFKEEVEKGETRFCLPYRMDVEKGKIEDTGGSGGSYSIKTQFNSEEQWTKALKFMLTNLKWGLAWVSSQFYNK

binding: binds
Substance: Beclin 1 (from UniProt Q14457 1-450)

From PMC6366968
